Experimental data taken from PubChem BioAssay AID662 (National Center for Advancing Translational Sciences (NCATS), 2007).
Values joined by “and” are separate entries in the source; they are usually repeats but may differ in a detail not shown here. Equal entries are not always repeated. Some of the results follow. The main result of the screen is listed elsewhere. These columns were measured beside it and carry no call. Most of these compounds were active or inconclusive in the main read-out, so they are no random draw. Potencies come from curve fits of mixed quality, noted in brackets.

Assay: Cell signaling CRE-BLA (Fsk stim)
Settings: CHO CRE-bla reporter (cAMP response element driving beta-lactamase), forskolin EC10, beta-lactamase ratio; measured here: 460 nm blue channel
Text: NIH Molecular Libraries Screening Centers Network [MLSCN]
NIH Chemical Genomics Center [NCGC]
Assay Provider: Marshall W. Nirenberg, U.S. National heart lung & blood institute
Memories persist for different lengths of time, from seconds or minutes to a lifetime. There are two kinds of memory: short-term memory (STM) and long-term memory (LTM). STM lasts for minutes to hours, which maybe mediated by modifications of molecules involved in synaptic functions. LTM lasts for days or longer, and may be due to the formation of new synapses or restructuring of existing synapses. LTM, but not STM, requires gene transcription and synthesis of proteins. CREB (cyclic-AMP Responsive Element Binding Protein) is one of the candidates plays an important role for enhancement of some types of LTM. CREB, a family of transcription factors, regulates the transcription of genes containing cAMP Responsive Elements (CRE). CRE is a nucleotide sequence often found in the promoter regions of genes that are binding sites for CREB.
Using a beta-lactamase reporter-gene under control of cAMP responsive element, a cell-based assay [CellSensor(TM) CRE-bla CHO developed by Invitrogen Corp.] was used to measure forskolin-induced signaling. Library compounds were measured for their ability to modulate positively or negatively the action of EC10 NKH 477, a water soluble forskolin, on reporter gene activity. Compounds were screened in a titration series in 1536-well format. Positive and negative modulators were identified based on the AC50 values derived from the screening data.
NCGC Assay Protocol Summary
2000 cells/5uL in Opti-MEM medium containing 0.5% dialyzed FBS, 0.1 mM NEAA, 1 mM sodium pyruvate and 10 mM HEPES was dispensed into 1536-well plates and cells were cultured at 37 degrees Celsius overnight. […] And then the plates were incubated at 37 degrees Celsius for 3 hours. 1 uL of CCF4-dye mixture was added to each well. After incubated at room temperature for 2 hours the plates were measured on an EnVision plate reader at Excitation 405nm, Emission1=460nm and Emission 2=530nm. The %Activity was determined from the ratio of 460nm/530nm.
Keywords: NIH Roadmap, MLSCN, MLSMR, qHTS, NCGC, CRE, beta-lactamase reporter-gene assay.

SMILES	AC50
COC(=O)c1c(NC(=O)c2cccs2)sc2c1CCCC2	15.8 µM [rising, single point]
COc1ccc(Cc2nnc(NC(=O)c3cccs3)s2)cc1	5.01 µM [rising, full curve]
COCCCNC(=O)CS(=O)Cc1nc(-c2cccc(OC)c2)oc1C (configuration not stated)	0.00316 µM [falling, full curve, poor fit]
CCCn1c(OC)nc2c1c(=O)n(C)c(=O)n2C	3.98 µM [rising, full curve, poor fit]
Cn1c(=O)oc2cc(S(=O)(=O)NC3CCCCCCC3)ccc21	25.1 µM [rising, single point]
COC(=O)C1=C(N)Oc2cc(N(C)C)ccc2C1c1ccccc1OC (configuration not stated)	10 µM [rising, partial curve]
COCCNC(=O)C(c1ccc(C)o1)N(CC1CCCO1)C(=O)Cn1nnc2ccccc21 (configuration not stated)	0.126 µM [falling, partial curve, poor fit]
N=c1c(C(=O)NCc2ccc(F)cc2)cc2c(=O)n3ccccc3nc2n1CC1CCCO1 (configuration not stated)	2.51 µM [rising, full curve]
COc1cc2c(cc1O)CC[C@@H]1[C@@H]2CC[C@@]2(C)[C@H](O)CC[C@H]12	12.6 µM [rising, single point]
CN1CCN(c2ncc3nc(-c4ccccc4)c(=O)n(-c4ccccc4)c3n2)CC1	10 µM [rising, partial curve]
Cc1cc(N2CCN(C)CC2)nc2ccc(NC(=O)CCC(=O)NCCC3=CCCCC3)cc12	20 µM [falling, single point]
COc1ccc(-c2oc3cc(OC)c(OC(C)=O)c(OC)c3c(=O)c2OC)cc1OC(C)=O	0.251 µM [rising, full curve, poor fit]
Cc1c(C(=O)NCCCN2CCCC2=O)oc2ccccc12	12.6 µM [falling, partial curve]
Cc1cc(NC(=O)c2cccc(C(=O)Nc3cc(C)on3)n2)no1	20 µM [rising, partial curve, poor fit]
CCOc1ccccc1Nc1nnc(SCc2ccc(C(=O)OC)o2)s1	12.6 µM [rising, partial curve]
CSc1ccccc1NC(=O)c1cnc2scc(C)n2c1=O	7.94 µM [rising, partial curve]
Cc1ccc(-n2c(Cc3cccn3C)nnc2SCC(=O)Nc2ccc3c(c2)OCO3)cc1	7.94 µM [falling, partial curve]
CC(C)c1ccc2oc(-c3ccc(NC(=O)c4ncn[nH]4)cc3)nc2c1	6.31 µM [falling, partial curve]
O=C(Nc1ccon1)c1cc(-c2ccccc2)nc2ccccc12	10 µM [rising, single point]
Cc1cc2c(C(C)C)c(O)c(O)c(C=O)c2c(O)c1-c1c(C)cc2c(C(C)C)c(O)c(O)c(C=O)c2c1O	10 µM [falling, single point] and 15.8 µM [falling, single point]
COc1ccc2nc(NCc3ccccc3)[nH]c2c1	12.6 µM [falling, single point]
COc1ccc2c(=O)cc(-c3ccccc3)oc2c1O	15.8 µM [rising, partial curve]
O=C(Nc1ccn(Cc2ccc(F)cc2)n1)c1ccncc1	0.2 µM [falling, full curve]

In the list so far, 2 have an NH in an aromatic ring:
SMILES	AC50
CC(C)c1ccc2oc(-c3ccc(NC(=O)c4ncn[nH]4)cc3)nc2c1	6.31 µM [falling, partial curve]
COc1ccc2nc(NCc3ccccc3)[nH]c2c1	12.6 µM [falling, single point]

Looked up by compound from the entries so far:
SMILES	AC50
COC(=O)c1c(NC(=O)c2cccs2)sc2c1CCCC2	15.8 µM [rising, single point]
COc1ccc2c(=O)cc(-c3ccccc3)oc2c1O	15.8 µM [rising, partial curve]

Further results.

SMILES	AC50
COCCNc1nc(C)nc2c1nc(-c1ccccc1)n2CCN1CCCCC1	10 µM [rising, single point]
Cc1cccc2c(=O)c(C(=O)N3CCCCCC3)c[nH]c12	2 µM [rising, partial curve]
Cc1cc(C)nc(N2CCN(c3nnnn3-c3ccccc3)CC2)n1	0.00316 µM [falling, full curve, poor fit]
CCn1c(=O)c2c(nc3n2CC(C)CN3CCc2ccccc2)n(C)c1=O (configuration not stated)	5.01 µM [rising, full curve]
O=C(c1cccc(Cl)c1)N1CCN(c2ccccn2)CC1	2.51 µM [falling, partial curve]
CC(=O)NCCNc1nc(-c2ccc(C(=O)N(C)C)cc2)nc2ccccc12	12.6 µM [rising, partial curve]
COc1ccc(C(=O)Nc2cccc(C(=O)N3CCN(C)CC3)c2)cc1	25.1 µM [rising, single point]
COc1ccc(/C=N/n2cnnc2SCc2ccc(OC)cc2)cc1	10 µM [rising, single point]
Cc1oc2nc(SCC(=O)NC3CCCCC3)nc(N)c2c1C	10 µM [rising, partial curve]
COC(=O)[C@@]1(Cc2ccccc2)[C@H]2c3cc(C(=O)N4CCCC4)n(Cc4ccc(OC)c(OC)c4)c3C[C@H]2CN1C(=O)c1ccccc1	0.251 µM [rising, partial curve]
Cn1cc(/C=N/n2cnc3scc(-c4ccc(Cl)cc4)c3c2=O)c2ccccc21	0.501 µM [rising, full curve]
CC(=O)Nc1ccc(-c2nn[nH]n2)cc1Cl	25.1 µM [falling, single point]
COc1ccc(C(C)=O)cc1COC(=O)Cn1cnc2ccccc2c1=O	25.1 µM [rising, single point]
CCNc1ncc2nc(-c3cccs3)c(=O)n(CCc3ccccc3)c2n1	1.26 µM [rising, full curve]
C#CCOC(=O)c1ccccc1C(=O)n1nnc2ccccc21	0.398 µM [falling, partial curve]
O=c1c(-c2cc(F)cc(F)c2)nc2cnc(N3CCOCC3)nc2n1Cc1ccc(F)cc1	12.6 µM [rising, partial curve]
COC(=O)c1c(NC(=O)Cc2cccs2)sc(C(=O)N2CCCCC2)c1C	0.631 µM [rising, full curve, poor fit]
COc1ccc2c(C)cc(=O)oc2c1C	10 µM [rising, single point]
Cc1c(C#N)sc2nc(-c3ccccc3)nc(N3CCCC3)c12	1 µM [rising, single point]
CCOC(=O)C1CCCN(c2c(NCCCN(CC)c3cccc(C)c3)c(=O)c2=O)C1 (configuration not stated)	2.51 µM [rising, single point]
O=C(O)CSCC(=O)c1ccccc1	0.501 µM [rising, partial curve]
CC1Cc2nc(SCC(=O)Nc3ccc4c(c3)OCO4)n(CCc3ccccc3)c(=O)c2S1 (configuration not stated)	7.94 µM [rising, partial curve]
COc1ccc(Nc2ccccc2)c(C)c1	12.6 µM [rising, single point]

SMILES	AC50
COc1ccc(-n2c(=O)c(-c3cn(C)c4ccccc34)nc3cnc(N4CCNCC4)nc32)cc1	7.94 µM [rising, partial curve]
CCN(CC)C(=O)CSc1nc(C)cc(-c2cccs2)c1C#N	12.6 µM [rising, partial curve]
Cc1cc2cc(CN(Cc3ccc4c(c3)OCO4)C(=O)c3cnccn3)c3nnnn3c2cc1C	25.1 µM [falling, single point]
COC(=O)C1=C(C)N=c2s/c(=C3\C(=O)Nc4ccccc43)c(=O)n2C1c1ccccc1 (configuration not stated)	2 µM [rising, partial curve]
COC(=O)C1=C(C)Nc2ncnn2C1c1ccccn1 (configuration not stated)	5.01 µM [rising, single point]
CN(C)c1ccnc(-c2cccc(NS(C)(=O)=O)c2)n1	12.6 µM [rising, partial curve]
O=C(Cc1cc(=O)[nH]c(=O)[nH]1)NCC1CCCO1 (configuration not stated)	3.16 µM [falling, single point]
CN(CCc1ccccn1)S(=O)(=O)c1ccc2c3c(cccc13)C(=O)N2	10 µM [rising, partial curve]
CCc1ccccc1NC(=O)Cn1nnc(-c2cccs2)n1	3.98 µM [falling, single point]
CN(C)CCCn1c2c3ccccc3ccc2c2oc(=O)c3ccccc3c21	3.16 µM [rising, single point]
O=c1c(-c2cc(F)cc(F)c2)nc2cnc(N3CCOCC3)nc2n1C[C@H]1CCCO1	15.8 µM [rising, partial curve]
N#C/C(=C\c1ccc(O)c(O)c1)C(=O)NCc1ccccc1	31.6 µM [rising, single point]
O=C(COc1ccccc1)n1nc(-c2ccc(Cl)cc2)nc1NCc1ccco1	20 µM [rising, single point]
CCN1C(=O)/C(=C2/C=CC=CN2C)OC1=S	0.251 µM [rising, full curve]
O=C(NCC(c1cccnc1)N1CCN(c2ccccc2F)CC1)c1ccccc1 (configuration not stated)	12.6 µM [rising, single point]
Cc1ccc(S(=O)(=O)N2CCCC2C(=O)NCc2ccco2)cc1 (configuration not stated)	20 µM [rising, single point]
COCCn1c(=O)c(C)nc2cnc(Oc3ccccc3)nc21	10 µM [rising, partial curve]
COc1ncc2nc(-c3ccc(Cl)cc3)c(=O)n(C[C@H]3CCCO3)c2n1	12.6 µM [rising, partial curve]
COC(=O)c1ccccc1NS(=O)(=O)c1ccc2c3c(cccc13)C(=O)N2	10 µM [rising, partial curve]
COc1cc2c(cc1OC)C(COc1ccc(F)cc1)N(C(=O)c1ccco1)CC2 (configuration not stated)	10 µM [rising, partial curve]
C=C(C)CSc1nnc(-c2cc(OC)c(OC)c(OC)c2)n1N	10 µM [rising, partial curve]
